According to PubChem BioAssay AID504467 (National Center for Advancing Translational Sciences (NCATS), 2011):
Hit rate of the full screen: of about 330,000 compounds, about 7,700 (2.3%) were called active. Inconclusive means that the source gave no clear call. Such entries were picked first, then a sample of the others. The call rests on the fitted dose curve; in most records, active means well fitted inhibition curve with a large enough effect; inconclusive means small, poorly fitted or top-dose-only effect, or effect the other way; inactive means flat fitted curve, though single readings scatter. Potencies beside an inconclusive call are fits to weak or partial responses and may not hold up.

Test: qHTS screen for small molecules that inhibit ELG1-dependent DNA repair in human embryonic kidney (HEK293T) cells expressing luciferase-tagged ELG1; further: nearly all actives have a fitted effect of over 55% in size
Details: HEK293T ELG1-luciferase reporter, luminescence, 16 h, DNA damage induced by 5-fluorouridine; activity change, negative = inhibition: at 46.1 µM (top of the series)
In short: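 Luminescence from the luciferase reporter, measured 30 min after ONE-Glo reagent at room temperature, was the read-out. Beforehand, 2,000 cells per well were exposed for 16 hr at 37 °C to 5-fluorouridine together with compound or vehicle.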
On the % scale 0 is the no-effect control and ±100 the full control effect; potency means the concentration at half of the fitted maximal effect.

Row | SMILES | activity change, negative = inhibition | Potency
1 | Cc1ccc(N(C(=O)c2csnn2)C(C(=O)NC2CCCC2)c2cccnc2)c(C)c1 (stereo not given) | inactive: -1.31% | –
2 | O=C(CCCOc1ccccc1)Nc1ncccn1 | – | inconclusive: 20.6 µM [activator, single point]
3 | CC(C)=CC(=O)N1CCCC(N2CCN(c3ccccc3C)CC2)C1 (stereo not given) | inactive: 4.95% | –
4 | Cc1cccc(C(=O)OCC(=O)NN2C(=O)NC3(CCC(C)CC3)C2=O)c1O (stereo not given) | – | inconclusive: 25.9 µM [activator, single point]
5 | O=C(Oc1ccc(N(C(=O)c2ccncc2)S(=O)(=O)c2ccc(Cl)cc2)cc1)c1ccncc1 | – | inconclusive: 10.3 µM [inhibitor, partial curve, poor fit]
6 | CCCOc1ccc(C(=O)CCC(=O)NNC(=O)c2cccs2)cc1 | inactive: 3.6% | –
7 | O=C(NCC(c1ccco1)N1CCN(c2ccc(F)cc2)CC1)C1CCCCC1 (stereo not given) | – | inconclusive: 25.9 µM [inhibitor, single point]
8 | Cn1c(=O)oc2cc(S(=O)(=O)N3CCN(c4ccccc4)CC3)ccc21 | – | inconclusive: 25.9 µM [activator, partial curve, poor fit]
9 | Cc1ccc2nc(-c3ccc(NC(=O)CSc4nccc(=O)[nH]4)cc3)sc2c1 | – | inconclusive: 2.06 µM [activator, full curve]
10 | Cc1ncsc1C(=O)N1N=C2/C(=C/c3ccc(N4CCOCC4)cc3)CCCC2C1c1ccc(N2CCOCC2)cc1 (stereo not given) | – | inconclusive: 6.51 µM [inhibitor, partial curve, poor fit]
11 | O=C(Nc1cccc(Cl)c1)C1C2CCC3C(CCC21)C3(Cl)Cl (stereo not given) | – | active: 25.9 µM
12 | Cc1[nH]c2ccccc2c1C(=O)/C=C\c1ccccc1Cl | – | inconclusive: 5.17 µM [activator, partial curve]
13 | CNC(=O)c1c(N)sc2c1CCCCC2 | inactive: 4.23% | –
14 | Cc1ccc(/C=C/C(=O)N2CCN(S(=O)(=O)/C=C/c3ccccc3)CC2)o1 | inactive: -22.8% | –
15 | O=C1COc2ccc(C(=O)c3ccccc3C(=O)NCc3ccccc3)cc2N1 | – | inconclusive: 7.31 µM [activator, partial curve, poor fit]
16 | COc1ccc(OC)c(Nc2ncnc3ccccc23)c1 | inactive: 6.01% | –
17 | CC1CC(C)CN(C(=O)c2cc3ccccc3o2)C1 (stereo not given) | – | inconclusive: 18.3 µM [activator, single point]
18 | COc1ccc(-c2cc(C(=O)N/N=C/c3ccc(OC)c(COCC(F)(F)C(F)F)c3)c3ccccc3n2)c(OC)c1 | – | inconclusive: 3.66 µM [inhibitor, full curve]
19 | COc1ccc(NC(=O)O/N=C2/CCCc3ccc(OC)cc32)cc1 | inactive: -8.07% | –
20 | CCOC(=O)C1=NN(c2ccccc2C)C2=NC(C)=C(C(=O)OC)C(c3cccs3)N12 (stereo not given) | – | inconclusive: 18.4 µM [inhibitor, partial curve, poor fit]
21 | COc1ccc(C(=O)CSC2=C(C#N)C3(CCCCC3)C(C#N)=C(N)N2)cc1 | – | inconclusive: 29.1 µM [inhibitor, single point]
22 | O=C(NCC(=O)N1CCN(c2ccccc2O)CC1)C1CCCCC1 | inactive: -7.2% | –
23 | CC(C(=O)OCC(=O)NC1CCCCC1)N1C(=O)c2ccccc2C1=O (stereo not given) | inactive: 11.5% | –
24 | Cc1ccc(C)c(CN2CCC(n3nccc3NC(=O)CCCc3ccccc3)CC2)c1 | – | inconclusive: 20.6 µM [inhibitor, single point]

Row | SMILES | activity change, negative = inhibition | Potency
25 | c1ccc(C2=Nn3c(nnc3-c3cccnc3)SC2)cc1 | – | inconclusive: 23.1 µM [activator, partial curve, poor fit]
26 | Cc1ccccc1N(CC(=O)NCCSc1ccccn1)S(=O)(=O)c1ccccc1 | – | inconclusive: 18.3 µM [inhibitor, single point]
27 | CCOC(=O)N1CCN(S(=O)(=O)N2CCCC(C(=O)NCCc3ccc(OC)c(OC)c3)C2)CC1 (stereo not given) | – | inconclusive: 18.3 µM [inhibitor, partial curve, poor fit]
28 | c1ccc2c(c1)Cc1cc(CN3CCOCC3)ccc1-2 | – | inconclusive: 20.6 µM [activator, partial curve]
29 | COc1ccccc1N1CCN(Cc2ccc(C(=O)O)cc2)CC1 | inactive: 4.86% | –
30 | C=CCC[C@H](Cc1ccc(F)cc1)C(=O)OC[C@H](Cc1c[nH]c2ccccc12)NC(=O)[C@@H](CC=C)CC(=O)N[C@H](CO)Cc1ccccc1 | – | inconclusive: 18.3 µM [inhibitor, single point]
31 | COc1ccc(Cl)cc1C(=O)Nc1ccccc1N1CCN(C(=O)C(C)C)CC1 | – | inconclusive: 25.9 µM [inhibitor, single point]
32 | O=C(CCNC(=O)c1ccco1)Nc1nc2ccccc2s1 | – | inconclusive: 13 µM [activator, single point]
33 | CC(C)(C)OC(=O)N1CCC(NC(=O)c2[nH]cnc2C(=O)N[C@@H](Cc2ccccc2)C(=O)OCc2ccccc2)CC1 | – | inconclusive: 16.4 µM [inhibitor, single point]
34 | CN(CC(=O)Nc1cccc(F)c1)C(=O)c1ccccc1OCC(=O)Nc1cccc(C(F)(F)F)c1 | – | inconclusive: 23.1 µM [inhibitor, single point]
35 | CC1CCC(NC(=O)c2ccc3nc[nH]c3c2)CC1 (stereo not given) | – | inconclusive: 18.4 µM [activator, partial curve]
36 | Cc1ccc(SCCNC(=O)c2ccc(C)c(S(=O)(=O)Nc3cccc(C)c3)c2)cc1 | – | inconclusive: 9.2 µM [inhibitor, single point]
37 | C/C(=N\NC(=O)c1csc(C)c1C)c1ccco1 | – | inconclusive: 3.26 µM [activator, full curve]
38 | CC(C)CNC(=O)[C@H](Cc1ccccc1)NC(=O)c1cccs1 | inactive: 3.66% | –
39 | COc1ccc(NC2=NC(C)(CO)CS2)cc1 (stereo not given) | – | inconclusive: 11.6 µM [activator, partial curve]
40 | O=C(COC(=O)/C(=C/c1cccs1)c1cccs1)NC(c1ccccc1)c1ccccc1 | inactive: -3.92% | –
41 | COc1ccc(C(=O)N[C@H](C(=O)Nc2nc3ccccc3[nH]2)C(C)C)cc1 | – | inconclusive: 5.8 µM [activator, partial curve]
42 | CCOc1ccc(/C=C2\SC(=S)N(CCC(=O)Nc3ccccc3C(=O)O)C2=O)cc1 | inactive: -7.52% | –
43 | O=S(N1CCc2ccccc21)C12CC3CC(CC(C3)C1)C2 (stereo not given) | – | inconclusive: 32.6 µM [inhibitor, single point]
44 | COCCCNC(=O)c1ccc(-c2csc(C)n2)cc1 | – | inconclusive: 13 µM [activator, partial curve]
45 | O=S(=O)(NCc1cn2ccsc2n1)c1cccs1 | – | inconclusive: 25.9 µM [activator, single point]
46 | CC(=O)c1cccc(NC(=O)c2ccc3c(c2)OCO3)c1 | – | inconclusive: 18.3 µM [activator, partial curve]
47 | CCc1cc(=O)oc2cc(C)cc(OCC(=O)NCCCN3CCOCC3)c12 | inactive: 23.1% | –
48 | NC(=O)c1sc2nc3c(c(-c4ccccc4)c2c1N)CCC3 | – | active: 4.11 µM

Of the compounds above, four have a Cl atom:
Row | SMILES | activity change, negative = inhibition | Potency
5 | O=C(Oc1ccc(N(C(=O)c2ccncc2)S(=O)(=O)c2ccc(Cl)cc2)cc1)c1ccncc1 | – | inconclusive: 10.3 µM [inhibitor, partial curve, poor fit]
11 | O=C(Nc1cccc(Cl)c1)C1C2CCC3C(CCC21)C3(Cl)Cl (stereo not given) | – | active: 25.9 µM
12 | Cc1[nH]c2ccccc2c1C(=O)/C=C\c1ccccc1Cl | – | inconclusive: 5.17 µM [activator, partial curve]
31 | COc1ccc(Cl)cc1C(=O)Nc1ccccc1N1CCN(C(=O)C(C)C)CC1 | – | inconclusive: 25.9 µM [inhibitor, single point]

(continued)

Row | SMILES | activity change, negative = inhibition | Potency
49 | O=S(=O)(NCC(c1ccco1)N1CCN(c2ccccc2F)CC1)c1ccccc1 (stereo not given) | inactive: -9.97% | –
50 | CCN(C(=O)CSc1nc(N)cc(=O)[nH]1)C1CCS(=O)(=O)C1 (stereo not given) | – | inconclusive: 35.5 µM [activator, single point]
51 | Cc1cc(OCCCCCn2ccnc2)cc(C)c1Cl | inactive: -20.2% | –
52 | O=C(NCc1ccc(Cl)c(Cl)c1)c1ccc2c(c1)OCO2 | inactive: 28.9% | –
53 | CCOC(=O)CN1C(=O)C(Sc2n[nH]c(-c3ccccc3)n2)CCc2ccccc21 (stereo not given) | – | inconclusive: 23.1 µM [inhibitor, partial curve]
54 | COc1cccc(-c2nnc(SCC(=O)N3CCOCC3)o2)c1 | – | inconclusive: 16.4 µM [activator, partial curve]
55 | CC(=O)OCC1OC(n2ccc3ccccc32)C(OC(C)=O)C(OC(C)=O)C1OC(C)=O (stereo not given) | inactive: -4.78% | –
56 | CC1CCN(c2ccc([N+](=O)[O-])cn2)CC1 | – | inconclusive: 18.4 µM [activator, single point]
57 | CCC(CC)c1nnc(NC(=O)c2ccc3ccccc3n2)s1 | – | inconclusive: 10.3 µM [activator, partial curve, poor fit]
58 | O=C(Cc1c[nH]c2ccccc12)Nc1cccc(S(=O)(=O)N2CCCCC2)c1 | – | inconclusive: 16.4 µM [inhibitor, partial curve, poor fit]
59 | CCc1noc(C)c1C(=O)NNC(=O)c1ccccc1F | – | inconclusive: 29.1 µM [activator, single point]
60 | CCN1CCN(C(=O)c2cc(-c3ccc(Cl)s3)nc3ccccc23)CC1 | inactive: -9.11% | –
61 | CSc1ccc(C(=S)N2CCN(C)CC2)cc1 | – | inconclusive: 29.1 µM [activator, single point]
62 | COc1ccccc1Nc1ncnc2c1cnn2-c1cccc(C)c1 | – | inconclusive: 20.6 µM [activator, single point]
63 | COCCNc1c2c(nc3c(-c4ccccc4)c(C)nn13)CCCC2 | – | inconclusive: 22.4 µM [inhibitor, single point]
64 | Cc1cc(NC(=O)c2cccc(Br)c2)n[nH]1 | – | inconclusive: 14.1 µM [activator, single point]
65 | Cc1ccc(OCC(=O)Nc2cc(-c3nn4c(C)nnc4s3)ccc2C)cc1 | inactive: 1.25% | –
66 | COC(=O)c1ccc(C(=O)OC)c(NC(=S)N2CCN(C(=O)C3CCCO3)CC2)c1 (stereo not given) | inactive: 12.5% | –
67 | Cc1cc(C(=O)Nc2ccc(Nc3ccccc3)cc2)ccc1[N+](=O)[O-] | – | inconclusive: 17.8 µM [inhibitor, single point]
68 | OC(C#CCN1CCCCC1)(c1ccccc1)c1ccccc1 | inactive: 20.5% | –
69 | CCN1C(=O)c2ccccc2S(=O)c2ccc(C(=O)NCc3ccc(OC)cc3)cc21 (stereo not given) | inactive: -17.3% | –
70 | O=C(Nc1ccccc1F)Nc1ccccc1Br | – | inconclusive: 8.2 µM [activator, partial curve]
